Literature values, collected in patent US10426801B2, “Encapsulated diagnostics and therapeutics in nanoparticles—conjugated to tropic cells and methods for their use” (CITY OF HOPE, priority 2011, dated 2019).
At least one compound was matched to its structure with a doubt left.

System: glioma
Settings: delivered from hydrolytically degradable particles implanted directly into the tumor cavity

Cn1nnc2c(C(N)=O)ncn2c1=O [TMZ, Temozolomide]
survival times compared to oral administration: doubled
